Measured values taken from PubChem BioAssay AID1347076 (National Center for Advancing Translational Sciences (NCATS), 2019).
Among all 400,000 compounds or so, about 13,000 (3.2%) were called active. This list was built around the results that the source calls inconclusive (neither active nor inactive); the mix of calls is not that of the screen. Calls follow the shape of the dose curve; as a rule, active = well fitted cell-killing curve with a large enough effect; inconclusive = small, poorly fitted or top-dose-only effect, or effect the other way; inactive = flat fitted curve, though single readings scatter. Potencies beside an inconclusive call are fits to weak or partial responses and may not hold up.

assay: qHTS assay for MDR1-selective chemotherapeutics: Primary screen using the drug-selected MDR subline cells KB-V1; details: KB-V1 MDR cells viability, CellTiter-Glo, 72 h; series mostly up to 46.1 µM; also: nearly all actives have a fitted effect of over 60% in size
How it was run: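 KB-V1 cells (P-gp-expressing MDR subline of KB-3-1) in phenol-red-free DMEM with 10% FBS were exposed to library compounds over a concentration series for 72 h at 37 degrees C. Viability read by CellTiter-Glo luminescence; concentration-effect curves fitted after normalization.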
Potency is read from the fitted curve at half-maximal effect.

Row | SMILES | Potency
1 | C=CCNc1nc2cc(-c3ccccc3C)sc2c(=O)n1C | inconclusive: 29.1 µM [cytotoxic, single point]
2 | O=C(NC(c1ccc(Cl)cc1)c1cnccn1)C1CCN(CCCOc2ccccc2)CC1 (configuration not stated) | inactive
3 | Cc1ccc(NC(=O)Cc2ccc(Cl)cc2)cc1S(=O)(=O)N1CCCCCC1 | inactive
4 | CC1CCN(C(=O)c2cc(Cl)ccc2NC(=O)c2ccco2)CC1 | inconclusive: 8.2 µM [cytotoxic, partial curve, poor fit]
5 | CCOC(=O)Cn1c(=O)cc(-c2ccccc2)c2c(C)nn(C)c21 | inactive
6 | COc1cccc(NC(=O)c2oc3ccccc3c2NC(=O)C(C)(C)C)c1 | inactive
7 | S=C(NCc1ccncc1)NC1CCCC1 | inactive
8 | COc1cccc(N2CC(C(=O)Nc3nnc(SCC(=O)c4ccccc4)s3)CC2=O)c1 (configuration not stated) | inconclusive: 16.4 µM [cytotoxic, single point]
9 | Cc1ccc(N(Cc2ccc(C(=O)Nc3ccccc3C(=O)NCc3ccco3)cc2)S(C)(=O)=O)cc1C | active: 2.06 µM
10 | O=C(c1cccc2c1-c1ccccc1/C2=N/O)N1CCCCC1 | inconclusive: 11.6 µM [cytotoxic, partial curve]
11 | CC[C@@H](NCCCn1cnc2c(SC)ncnc21)c1ccccc1 | inconclusive: 9.2 µM [cytotoxic, partial curve, poor fit]
12 | CC(=O)NNC(=O)CC(=O)Nc1nc(C23CC4CC(CC(C4)C2)C3)cs1 | inactive
13 | COc1ccc(C(=O)NC(Cc2ccccc2)c2ccc3c(c2)OCCCO3)cc1 (configuration not stated) | inactive
14 | COCC(C)n1c(C)cc(C(=O)COC(=O)c2cnc(Cl)c(Cl)c2)c1C (configuration not stated) | inconclusive: 29.1 µM [rising, single point]
15 | CN(CCc1ccccc1)C(=O)c1ccc(NC(=O)Cc2ccc(NC(=O)C3CCCN(C(=O)CCc4ccccc4)C3)cc2)cc1 (configuration not stated) | inconclusive: 18.4 µM [rising, single point]
16 | COc1ccc(-n2c(SCC(=O)Nc3ccccc3OC)nc(O)c(Cc3ccccc3)c2=O)cc1 | inconclusive: 4.11 µM [rising, full curve, poor fit]
17 | CCOc1ccc(NC(=O)Cn2nc(-c3ccccc3Cl)n(CC)c2=S)cc1 | inconclusive: 20.6 µM [cytotoxic, partial curve]
18 | COc1ccc(OC)c(CCNC(=O)c2ccc(CS(=O)Cc3cccc(Cl)c3)o2)c1 (configuration not stated) | inactive
19 | Cc1ccc2oc3c(SCc4nc5ccccc5[nH]4)nc(C)nc3c2c1 | inactive
20 | Cc1nc(-c2ccc(NS(C)(=O)=O)cc2)cs1 | inconclusive: 0.461 µM [cytotoxic, full curve, poor fit]
21 | COc1cc(C2NC(=O)NC(C)=C2C(=O)OC2CCC(C)CC2)ccc1O (configuration not stated) | inconclusive: 29.1 µM [rising, single point]
22 | O=C(NCCOc1ccccc1)c1ccccc1Cl | inconclusive: 29.1 µM [rising, single point]
23 | COc1ccc(OC)c2sc(N3CCc4ccccc4C3)nc12 | inconclusive: 7.31 µM [cytotoxic, partial curve]
24 | CN(CCc1ccccn1)C(=O)CCC1CCCN(C(=O)CN2CCCCCC2)C1 (configuration not stated) | inconclusive: 13 µM [rising, single point]

Row | SMILES | Potency
25 | CCc1ccccc1N(CC)C(=O)c1cc2c(s1)-c1ccccc1OC2 | inactive
26 | CN(C)S(=O)(=O)c1cccc(NC(=O)C2CCCN(C(=O)c3ccc(Cl)cc3)C2)c1 (configuration not stated) | inconclusive: 20.6 µM [cytotoxic, single point]
27 | Cc1ccc(NC(=O)C2=CC=CN3CCS(=O)(=O)N=C23)cc1 | inconclusive: 16.4 µM [rising, single point]
28 | CC(C)CCN1C(=O)CCC1(C)C(=O)NC1CCCCCC1 (configuration not stated) | active: 18.4 µM
29 | CCCn1nc(C(=O)Nc2ccc3nc(N4CCOCC4)sc3c2)ccc1=O | inconclusive: 29.1 µM [cytotoxic, single point]
30 | CC(=O)NC1C(Oc2ccc3c(C)cc(=O)oc3c2)OC(COC(C)=O)C(OC(C)=O)C1OC(C)=O (configuration not stated) | inactive
31 | COc1cc(OC)c(NC2c3ccccc3C(=O)N2c2cc(C)ccn2)cc1Cl (configuration not stated) | inconclusive: 29.1 µM [rising, single point]
32 | Cc1ccccc1C(=O)N/N=C/c1ccc([N+](=O)[O-])s1 | inconclusive: 29.1 µM [cytotoxic, single point]
33 | CC(=O)Nc1c(NC(C)C)c2ccccc2oc1=O | inactive
34 | Brc1ccc2nc(N3CCCC3)sc2c1 | inconclusive: 20.6 µM [cytotoxic, single point]
35 | O=C(CSc1nc2ccccc2o1)Nc1nc2c(s1)CCCC2 | inconclusive: 23.1 µM [cytotoxic, single point]
36 | O=S(=O)(NC1=NCCCCC1)c1ccc2ccccc2c1 | inconclusive: 20.6 µM [cytotoxic, single point]
37 | O=C(Nc1ccc(NC(=O)c2cccs2)cc1)c1ccc(Br)cc1 | inactive
38 | Cc1c(Cl)c([N+](=O)[O-])nn1CC(=O)NC1CCCCC1 | inactive
39 | COc1cc2c(cc1OC)C(C(=O)N1CCN(c3ccccc3)CC1)C(c1cccs1)N(C)C2=O (configuration not stated) | inactive
40 | O=C(NCCc1c[nH]c2ccccc12)C(=O)NCC1OCCN1S(=O)(=O)c1ccc(F)cc1 (configuration not stated) | inconclusive: 29.1 µM [rising, single point]
41 | CCCNC(=O)c1ccccc1NC(=O)Nc1ccccc1C | inconclusive: 20.6 µM [cytotoxic, partial curve, poor fit]
42 | COc1ccccc1CCC(=O)Nc1ccc(OC)c(S(=O)(=O)N2CCCCC2)c1 | inactive
43 | Cc1ccc(C2(C)NC(=O)N(CC(=O)N(C)CC(=O)Nc3cccc4ccccc34)C2=O)cc1 (configuration not stated) | inactive
44 | CC(O)(c1cccnc1)c1nc(-c2ccc3ccccc3c2)cs1 (configuration not stated) | active: 6.51 µM
45 | COc1ccc(C(C(=O)NC(C)(C)C)n2c(-c3ccc(-c4ccccc4)cc3)nc3ccccc32)cc1 (configuration not stated) | inactive
46 | COc1cc(OC)c(C(=O)O/N=C(\N)c2ccc(C)cc2)cc1OC | inconclusive: 29.1 µM [cytotoxic, single point]
47 | C/C(CC(=O)NC1CCCC1)=N\NC(=O)C1CCCCC1 | inactive

Random excerpt: two compounds from above.
Row | SMILES | Potency
44 | CC(O)(c1cccnc1)c1nc(-c2ccc3ccccc3c2)cs1 (configuration not stated) | active: 6.51 µM
25 | CCc1ccccc1N(CC)C(=O)c1cc2c(s1)-c1ccccc1OC2 | inactive
